Results deposited as PubChem BioAssay AID1159578 (Peter MacCallum Cancer Centre, 2015).
Assay: 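siRNA pools altering how lymphatic endothelial cells close a scratch wound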 (primary screen). Cells: human lymphatic endothelial cells. Reagent: siRNA pool against human genes, 40 nM. Timing: 48 h after transfection. Read-out: 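Cells stained with dye and imaged after a scratch; covered wound area and nuclei counted, duplicates averaged, migration set against mock wells and turned into a robust z-score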. Reading the numbers: migration robust z-score: higher = faster migration into the scratch; migration relative to mock: higher = more scratch area covered than mock; nuclei per well: higher = more cells in the well. Rule for the call: 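Migration changed when robust z exceeds 2 or falls below -2 and mean nuclei number is at least 3300; otherwise not called changed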. Meaning of the calls: active = migration changed; inactive = no migration change, or too few cells.
The deposit covers about 18,000 reagents; below is a random part of them. About 1,030 of them (5.7%) count as active. 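Inactive calls also include pools with fewer than 3300 nuclei, whose migration was not assessed.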 The raw values are shown without normalisation.

no.	target	migration robust z-score	migration class with cell-count check	migration relative to mock	nuclei per well, duplicate mean	Outcome
1	POU2AF2	-0.05	migration z between -2 and 2; enough cells	0.87	5809	inactive
2	ABHD16A	-1.27	migration z between -2 and 2; enough cells	0.56	5710	inactive
3	ACTRT2	0.26	migration z between -2 and 2; enough cells	0.96	4986	inactive
4	HLA-A	-1.79	migration z between -2 and 2; enough cells	0.46	5078	inactive
5	IL18	0.74	migration z between -2 and 2; enough cells	1.07	5853	inactive
6	POLN	-0.2	migration z between -2 and 2; enough cells	0.84	6734	inactive
7	MISP	-0.91	migration z between -2 and 2; enough cells	0.65	5265	inactive
8	ATF1	1.12	migration z between -2 and 2; enough cells	1.02	5968	inactive
9	PSAT1	-1.12	migration z between -2 and 2; enough cells	0.59	6418	inactive
10	OLFM3	-0.47	migration z between -2 and 2; enough cells	0.77	4698	inactive
11	SYNJ1	-0.88	migration z between -2 and 2; enough cells	0.64	4208	inactive
12	TACC1	0.25	migration z between -2 and 2; enough cells	0.95	7616	inactive
13	SCARB1	-1.06	migration z between -2 and 2; enough cells	0.6	6238	inactive
14	LDLRAD1	1.09	migration z between -2 and 2; enough cells	1.17	7532	inactive
15	FMNL3	-0.09	migration z between -2 and 2; enough cells	0.86	5068	inactive
16	MAPK1IP1L	-0.28	migration z between -2 and 2; enough cells	0.82	5648	inactive
17	ITM2A	-1.6	migration z between -2 and 2; enough cells	0.47	4973	inactive
18	PPP2CA	-0.52	migration z between -2 and 2; enough cells	0.7	3676	inactive
19	CAB39L	1.48	migration z between -2 and 2; enough cells	1.27	4734	inactive
20	RPA2	-1.04	migration z between -2 and 2; enough cells	0.62	5522	inactive
21	PANX1	0.12	migration z between -2 and 2; enough cells	0.92	6162	inactive
22	CFAP300	0.39	migration z between -2 and 2; enough cells	0.99	6360	inactive
23	DEPDC1B	0.5	migration z between -2 and 2; enough cells	1.02	5846	inactive
24	NOC2L	0.36	migration z between -2 and 2; enough cells	0.97	5563	inactive
25	HS3ST1	-2.16	migration z below -2; enough cells	0.39	5762	active
26	MOK	-1.43	migration z between -2 and 2; enough cells	0.53	3502	inactive
27	REPS1	-1.7	migration z between -2 and 2; enough cells	0.44	5708	inactive
28	PDPR	-1.42	migration z between -2 and 2; enough cells	0.53	3465	inactive
29	ADAM7	0.2	migration z between -2 and 2; enough cells	0.84	5978	inactive
30	PRELP	0.12	migration z between -2 and 2; enough cells	0.92	6097	inactive
31	CAMP	0.02	migration z between -2 and 2; enough cells	0.9	5796	inactive
32	PMF1	-0.9	migration z between -2 and 2; enough cells	0.65	6078	inactive
33	MYBBP1A	-0.78	migration z between -2 and 2; enough cells	0.66	5307	inactive
34	RASGRP3	-0.92	migration z between -2 and 2; enough cells	0.64	5854	inactive
35	TMPRSS11B	0.99	migration z between -2 and 2; enough cells	1	6253	inactive
36	RAD54L	0.88	migration z between -2 and 2; enough cells	0.98	6728	inactive
37	GAD1	1.12	migration z between -2 and 2; enough cells	1.02	5011	inactive
38	FXYD3	0.55	migration z between -2 and 2; enough cells	0.91	3938	inactive
39	GAL	0.74	migration z between -2 and 2; enough cells	1.07	6276	inactive
40	LPIN2	-2.11	under 3300 nuclei; migration not judged	0.34	3133	inactive
41	ERN1	0.47	migration z between -2 and 2; enough cells	0.9	6154	inactive
42	TAFA1	-0.32	migration z between -2 and 2; enough cells	0.8	5408	inactive
43	PSMD10	-3.25	under 3300 nuclei; migration not judged	0.03	2215	inactive
44	MT1HL1	1.23	migration z between -2 and 2; enough cells	1.21	5799	inactive
45	CACNG4	0.42	migration z between -2 and 2; enough cells	0.88	4786	inactive
46	B4GALNT2	-2.24	migration z below -2; enough cells	0.38	5457	active
47	AUTS2	-0.04	migration z between -2 and 2; enough cells	0.88	5592	inactive
48	NYX	-1.36	migration z between -2 and 2; enough cells	0.54	3960	inactive
49	LOX	1.01	migration z between -2 and 2; enough cells	1	6173	inactive
50	SLC1A6	-1.68	migration z between -2 and 2; enough cells	0.45	4840	inactive
51	PDCD5	-0.13	migration z between -2 and 2; enough cells	0.85	5800	inactive
52	APOBEC3A	-3.19	migration z below -2; enough cells	0.19	4218	active
53	CALN1	-1.5	migration z between -2 and 2; enough cells	0.5	4334	inactive
54	CLSPN	0.23	migration z between -2 and 2; enough cells	0.94	4080	inactive
55	CYP7A1	0.52	migration z between -2 and 2; enough cells	0.9	6230	inactive
56	ADH5	0.5	migration z between -2 and 2; enough cells	1.02	6391	inactive
57	NRXN1	-0.45	migration z between -2 and 2; enough cells	0.77	5012	inactive
58	TMEM109	0.8	migration z between -2 and 2; enough cells	1.09	5106	inactive
59	GPSM3	1.2	migration z between -2 and 2; enough cells	1.19	7006	inactive
60	MRPL43	1.45	migration z between -2 and 2; enough cells	1.08	6241	inactive
61	PALS2	-1.06	migration z between -2 and 2; enough cells	0.6	5697	inactive
62	QTGAL	1.04	migration z between -2 and 2; enough cells	1	6020	inactive
63	ZNF573	0.97	migration z between -2 and 2; enough cells	1.14	5557	inactive
64	SETDB1	-0.42	migration z between -2 and 2; enough cells	0.72	6324	inactive
65	GTF2H3	-0.05	migration z between -2 and 2; enough cells	0.8	5178	inactive
66	LINC02913	-0.06	migration z between -2 and 2; enough cells	0.87	6500	inactive
67	CCNA1	0.08	migration z between -2 and 2; enough cells	0.82	5827	inactive
68	MUCL3	0.36	migration z between -2 and 2; enough cells	0.98	5904	inactive
69	CCHCR1	0.92	migration z between -2 and 2; enough cells	1.12	5799	inactive
70	CAPRIN2	1.52	migration z between -2 and 2; enough cells	1.27	5812	inactive
71	CCND2	2.91	migration z above 2; enough cells	1.36	5980	active
72	SMPDL3A	0.36	migration z between -2 and 2; enough cells	0.88	5706	inactive
73	UBQLN2	1.66	migration z between -2 and 2; enough cells	1.31	6294	inactive

Already shown: 9 of the entries above.
no.	target	migration robust z-score	migration class with cell-count check	migration relative to mock	nuclei per well, duplicate mean	Outcome
18	PPP2CA	-0.52	migration z between -2 and 2; enough cells	0.7	3676	inactive
19	CAB39L	1.48	migration z between -2 and 2; enough cells	1.27	4734	inactive
20	RPA2	-1.04	migration z between -2 and 2; enough cells	0.62	5522	inactive
21	PANX1	0.12	migration z between -2 and 2; enough cells	0.92	6162	inactive
22	CFAP300	0.39	migration z between -2 and 2; enough cells	0.99	6360	inactive
23	DEPDC1B	0.5	migration z between -2 and 2; enough cells	1.02	5846	inactive
24	NOC2L	0.36	migration z between -2 and 2; enough cells	0.97	5563	inactive
25	HS3ST1	-2.16	migration z below -2; enough cells	0.39	5762	active
26	MOK	-1.43	migration z between -2 and 2; enough cells	0.53	3502	inactive
